# Measured values reported in PMC4976216.
# Sequences of proteins named here, by UniProt entry; tags and fusion partners are left off.
# UniProt A0A8I3NZ88: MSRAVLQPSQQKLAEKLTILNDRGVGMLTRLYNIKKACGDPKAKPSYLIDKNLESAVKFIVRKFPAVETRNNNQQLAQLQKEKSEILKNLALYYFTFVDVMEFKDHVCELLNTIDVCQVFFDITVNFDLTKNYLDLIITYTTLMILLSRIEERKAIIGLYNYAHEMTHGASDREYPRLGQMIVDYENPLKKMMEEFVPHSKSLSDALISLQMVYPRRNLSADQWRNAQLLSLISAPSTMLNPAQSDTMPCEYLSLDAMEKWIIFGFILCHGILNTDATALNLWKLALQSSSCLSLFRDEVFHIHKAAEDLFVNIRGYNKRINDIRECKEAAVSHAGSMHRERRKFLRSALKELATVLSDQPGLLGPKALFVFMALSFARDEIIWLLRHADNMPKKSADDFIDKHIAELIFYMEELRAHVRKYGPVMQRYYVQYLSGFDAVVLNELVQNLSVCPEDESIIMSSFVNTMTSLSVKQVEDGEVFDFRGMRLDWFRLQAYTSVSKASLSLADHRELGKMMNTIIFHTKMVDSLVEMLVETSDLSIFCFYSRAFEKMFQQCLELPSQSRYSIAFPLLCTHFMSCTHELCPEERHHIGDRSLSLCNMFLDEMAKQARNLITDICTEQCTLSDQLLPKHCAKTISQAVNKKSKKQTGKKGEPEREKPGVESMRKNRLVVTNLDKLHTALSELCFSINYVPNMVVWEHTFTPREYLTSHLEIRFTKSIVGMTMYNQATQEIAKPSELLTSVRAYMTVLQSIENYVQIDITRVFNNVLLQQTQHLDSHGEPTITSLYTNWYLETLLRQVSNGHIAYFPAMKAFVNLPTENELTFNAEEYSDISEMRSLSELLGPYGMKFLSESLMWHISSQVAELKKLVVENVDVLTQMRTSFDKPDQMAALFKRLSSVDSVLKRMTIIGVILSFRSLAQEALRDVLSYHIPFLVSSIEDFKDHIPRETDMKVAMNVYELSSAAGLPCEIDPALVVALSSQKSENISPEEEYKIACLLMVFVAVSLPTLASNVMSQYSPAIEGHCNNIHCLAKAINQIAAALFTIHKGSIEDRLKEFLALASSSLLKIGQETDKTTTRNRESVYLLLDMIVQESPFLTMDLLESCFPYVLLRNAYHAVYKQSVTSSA
# No constants are given. Whether binding was seen depends on the method and setting. In cells and extracts the contact can be indirect. These calls come from enrichment with a bait or labelling near it, and not all partners need be listed.
# Molecular target: T1, Cingulin (CGN), endogenous in MDCK cells (canine (endogenous in MDCK)) (UniProt A7YH32)
# T1 sequence: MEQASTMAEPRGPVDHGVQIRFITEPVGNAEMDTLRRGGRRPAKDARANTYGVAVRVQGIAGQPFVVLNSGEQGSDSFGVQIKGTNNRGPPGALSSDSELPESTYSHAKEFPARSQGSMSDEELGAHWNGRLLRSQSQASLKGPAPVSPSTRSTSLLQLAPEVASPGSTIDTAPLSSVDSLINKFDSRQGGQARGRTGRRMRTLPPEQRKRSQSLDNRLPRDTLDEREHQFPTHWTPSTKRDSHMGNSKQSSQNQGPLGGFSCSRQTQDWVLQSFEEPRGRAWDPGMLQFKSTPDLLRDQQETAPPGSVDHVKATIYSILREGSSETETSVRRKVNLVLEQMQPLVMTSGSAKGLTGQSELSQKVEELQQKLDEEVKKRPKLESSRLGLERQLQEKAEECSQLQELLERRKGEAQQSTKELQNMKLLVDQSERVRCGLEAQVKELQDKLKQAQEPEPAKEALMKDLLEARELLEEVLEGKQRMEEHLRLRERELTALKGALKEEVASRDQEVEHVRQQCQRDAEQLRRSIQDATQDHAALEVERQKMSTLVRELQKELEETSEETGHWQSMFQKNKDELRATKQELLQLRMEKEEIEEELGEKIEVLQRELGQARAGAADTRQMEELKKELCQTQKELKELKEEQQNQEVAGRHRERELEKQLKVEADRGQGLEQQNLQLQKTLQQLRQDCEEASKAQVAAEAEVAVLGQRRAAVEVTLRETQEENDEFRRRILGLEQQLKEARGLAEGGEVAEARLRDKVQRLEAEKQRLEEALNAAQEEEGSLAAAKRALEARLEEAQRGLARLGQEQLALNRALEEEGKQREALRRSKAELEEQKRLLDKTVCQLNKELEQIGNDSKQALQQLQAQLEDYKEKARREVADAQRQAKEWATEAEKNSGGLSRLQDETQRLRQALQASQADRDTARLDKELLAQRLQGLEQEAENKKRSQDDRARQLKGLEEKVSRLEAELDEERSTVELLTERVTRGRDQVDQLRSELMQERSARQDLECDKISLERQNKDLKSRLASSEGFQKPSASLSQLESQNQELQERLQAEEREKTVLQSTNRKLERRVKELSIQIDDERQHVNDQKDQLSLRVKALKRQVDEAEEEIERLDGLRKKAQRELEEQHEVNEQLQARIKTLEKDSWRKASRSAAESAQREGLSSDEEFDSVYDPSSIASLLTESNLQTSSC
# Assay: affinity purification with mass spectrometry; anti-CGN antibody on protein A-sepharose, lysates of MDCK cells synchronized at telophase; eluted with 0.1 M glycine pH 2.0; compared with an IgG control
substance,measurement,value
"Nap1, endogenous in MDCK cells (from UniProt A0A8I3NZ88 1-1128)",binding,binds
